# Source: article PMC8456932 (Angewandte Chemie (International Ed. in English), 2021)
# Assay: general procedure: Fmoc solid-phase peptide synthesis; Rink Amide MBHA resin; 2-chlorotrityl chloride resin; HBTU, HOBt, DIPEA
# [1] = lipidation step, HPLC-MS relative ratio
# [2] = lipidation step, calibrated, HPLC-MS
# [3] = lipidation step, calibrated, HPLC-UV
# [4] = late stage modification step, run 1
# [5] = late stage modification step, calibrated, HPLC-MS
# [6] = late stage modification step, calibrated, HPLC-UV
# [7] = late stage modification step, HPLC-MS
substance,measurement,setting,value
Alkynylated Ac-Ala-Cys-Gly-Phe-NH2,step yield,[1],82%
PEPTIDE1{A.L.F.[XCysA].A.L.[am]}$$$$V2.0,step yield,late stage modification step,61%
PEPTIDE1{A.L.F.[XCysB].A.L.[am]}$$$$V2.0,step yield,[2],69%
same,step yield,[3],78%
same,step yield,"lipidation step, run 1",76% and 40%
PEPTIDE1{A.[XCysA].A.F.K.D.[am]}$$$$V2.0,step yield,late stage modification step,89%
PEPTIDE1{A.[XCysA].F.G.A.L.[am]}$$$$V2.0,step yield,[1],86%
PEPTIDE1{A.[XCysB].A.F.K.D.[am]}$$$$V2.0,step yield,lipidation step,62%
PEPTIDE1{A.[XCysB].F.G.A.L.[am]}$$$$V2.0,step yield,[1],82%
same,step yield,"lipidation step, calibrated yield, HPLC-MS",90%
same,step yield,"lipidation step, calibrated yield, HPLC-UV",70%
same,step yield,"lipidation step, isolated",36%
PEPTIDE1{F.[XCysA].F.K.A.L.[am]}$$$$V2.0,step yield,late stage modification step,89%
PEPTIDE1{F.[XCysA].G.P.S.L.[am]}$$$$V2.0,step yield,late stage modification step,67%
PEPTIDE1{F.[XCysB].F.K.A.L.[am]}$$$$V2.0,step yield,lipidation step,80%
PEPTIDE1{F.[XCysB].G.P.S.L.[am]}$$$$V2.0,step yield,lipidation step,74%
PEPTIDE1{G.[XCysA].A.F.K.T.[am]}$$$$V2.0,step yield,late stage modification step,69%
PEPTIDE1{G.[XCysA].A.L.N.T.[am]}$$$$V2.0,step yield,late stage modification step,86%
PEPTIDE1{G.[XCysB].A.F.K.T.[am]}$$$$V2.0,step yield,lipidation step,72%
PEPTIDE1{G.[XCysB].A.L.N.T.[am]}$$$$V2.0,step yield,lipidation step,84%
PEPTIDE1{[ac].A.[Cys(VBX)].G.F.[am]}$$$$V2.0,step yield,lipidation step,16%
same,step yield,[1],18%
PEPTIDE1{[ac].A.[XCysA].G.F.[am]}$$$$V2.0,step yield,[1],82%
same,step yield,"lipidation step, calibrated yield",79%
same,step yield,"lipidation step, isolated",36%
PEPTIDE1{[ac].E.R.A.A.K.E.R.A.[XCysA].A.E.R.A.A.E.G.G.Y.[am]}$$$$V2.0,step yield,late stage modification step,81%
PEPTIDE1{[ac].E.R.A.A.K.E.R.A.[XCysB].A.E.R.A.A.E.G.G.Y.[am]}$$$$V2.0,step yield,lipidation step,47%
PEPTIDE1{[ac].F.H.[Cys(CC-TIPS)].Q.V.[Cys(CC-TIPS)].F.I.T.[am]}$$$$V2.0,step yield,[4],31% and 57%
same,step yield,lipidation step,57%
PEPTIDE1{[ac].L.Q.Q.[XCysA].P.F.E.D.H.[am]}$$$$V2.0,step yield,late stage modification step,78%
PEPTIDE1{[ac].L.Q.Q.[XCysB].P.F.E.D.H.[am]}$$$$V2.0,step yield,lipidation step,52%
PEPTIDE1{[ac].M.V.R.Q.V.H.K.D.L.I.[XCysA].E.P.N.E.[am]}$$$$V2.0,step yield,late stage modification step,76%
PEPTIDE1{[ac].M.V.R.Q.V.H.K.D.L.I.[XCysB].E.P.N.E.[am]}$$$$V2.0,step yield,lipidation step,50%
PEPTIDE1{[ac].N.Q.K.L.L.R.W.L.N.[XCysA].F.T.Q.Q.S.Q.[am]}$$$$V2.0,step yield,[5],38%
same,step yield,[6],77%
same,step yield,[4],95% and 51%
PEPTIDE1{[ac].N.Q.K.L.L.R.W.L.N.[XCysB].F.T.Q.Q.S.Q.[am]}$$$$V2.0,step yield,"lipidation step, run 1",69% and 51%
PEPTIDE1{[ac].W.M.N.S.T.G.F.T.K.V.[Cys(VBX)].G.A.[am]}$$$$V2.0,step yield,"lipidation step, run 1",17%
same,step yield,"lipidation step, run 2",19%
PEPTIDE1{[ac].W.M.N.S.T.G.F.T.K.V.[XCysA].G.A.[am]}$$$$V2.0,step yield,[5],83%
same,step yield,[6],80%
PEPTIDE1{[ac].W.M.N.S.T.G.F.T.K.V.[XCysB].G.A.[am]}$$$$V2.0,step yield,lipidation step,74%
palmitolyl-ester of Ac-Ala-Cys-Gly-Phe-NH2,step yield,"lipidation step, HPLC-MS",76%
palmitoyl thioester of H-Gly-Cys-Ala-Phe-Lys-Thr-NH2,step yield,lipidation step,34%
same,step yield,"lipidation step, HPLC-MS",73%
same,step yield,[2],40%
same,step yield,[3],50%
palmitoylthioester of Ac-Trp-Met-Asn-Ser-Thr-Gly-Phe-Thr-Lys-Val-Cys-Gly-Ala-NH2,step yield,lipidation step,67%
silylthioester of Ac-Trp-Met-Asn-Ser-Thr-Gly-Phe-Thr-Lys-Val-Cys-Gly-Ala-NH2,step yield,[7],82%
silylthioester of H-Ala-Cys-Ala-Phe-Lys-Asp-NH2,step yield,late stage modification step,35%
same,step yield,[7],58%
silylthioester of H-Gly-Cys-Ala-Phe-Lys-Thr-NH2,step yield,[7],58%

# Where “and” joins values, the source holds several entries; their conditions need not be identical. Identical values can stand only once. HELM strings list residues between dots; [ac] is acetyl, [am] amide, other brackets name non-standard units.
